{"source": "paper PMC9279154", "about": "(Nature, 2022)", "key": {"Dcr-2 WT + Loqs-PD [1]": {"test_system": "Dcr-2 WT + Loqs-PD", "assay": "size exclusion chromatography", "details": "dimer; 5'-monophosphate on both strands; recombinant protein"}, "Dcr-2 WT + Loqs-PD [2]": {"test_system": "Dcr-2 WT + Loqs-PD", "assay": "EMSA", "details": "0.2 uM dsRNA, Loqs-PD helps Dcr-2 bind dsRNA; 5'-monophosphate on both strands; with or without ATP and Mg2+; recombinant protein"}}, "note": "Construct, isoform or probe ends are uncertain for at least one entry. At least one verdict rests on a figure or table, not on a statement of the authors.", "data": [{"sequence": "GAGACUUGGGCAAUGUGACUGCUGAUCAGCAGUCACAUUGCCCAAGUCUCUU / GAGACUUGGGCAAUGUGACUGCUGAUCAGCAGUCACAUUGCCCAAGUCUCUU [50 bp palindromic dsRNA]", "values": [{"measurement": "binding result", "setting": "Dcr-2 WT + Loqs-PD [1]", "result": "binds"}, {"measurement": "binding result", "setting": "Dcr-2 WT + Loqs-PD [2]", "result": "binds"}]}]}
